Measured values from patent US7250397B2, “Antiarrhythmic peptides” (Zealand Pharma A/S, priority 2000, dated 2007).
Some entries share one result that the patent states for a list of compounds. [ ]: non-standard residue; d: D form. Hyp = O=C(O)[C@@H]1C[C@@H](O)CN1

Experiment: In vitro stability in plasma and serum, summary statement
Type: in vitro ADME

H-PYNGAG[Hyp]-NH2 [Compound 27]
half life of degradation: ≥ 3 h
